This is an account of results in US20210322508A1, “PEPTIDES AND COMPOSITIONS FOR TARGETED TREATMENT AND IMAGING” (SIGNABLOK, INC., priority 2018, published 2021).

The data set relates to native lipoproteins. The data set can be described thus: Ultracentrifugation of fluorescently labeled peptides with mouse serum. The format is binding. The settings on record: rho B-labeled peptide, whole mouse serum, density 1.21 g/mL.

Residues, ends and D or L forms follow the SMILES beside them.

Regarding `CC(C)C[C@H](NC(=O)[C@H](Cc1ccccc1)NC(=O)CN)C(=O)N[C@@H](CO)C(=O)N[C@@H](CCCCN)C(=O)N[C@@H](CO)C(=O)N[C@@H](CC(C)C)C(=O)N[C@H](C(=O)N[C@@H](Cc1ccccc1)C(=O)N[C@H](C(=O)N[C@@H](CCCCN)C(=O)N1CCC[C@H]1C(=O)N[C@@H](CCC(=O)O)C(=O)N[C@@H](CO)C(=O)N[C@@H](CCC(=O)O)C(=O)N[C@@H](CCCNC(=N)N)C(=O)N[C@@H](CC[S+](C)[O-])C(=O)N1CCC[C@H]1C(=O)N[C@@H](CS)C(=O)N[C@H](C(=O)N[C@@H](CCC(=O)O)C(=O)O)[C@@H](C)O)[C@@H](C)O)C(C)C` (some centres unmarked) [G-TE21, reference compound], the “interaction with native lipoproteins” value was “may and may not”. The value for `CC(C)C[C@H](NC(=O)[C@H](Cc1ccccc1)NC(=O)CN)C(=O)N[C@@H](CO)C(=O)N[C@@H](CCCCN)C(=O)N[C@@H](CO)C(=O)N[C@@H](CC(C)C)C(=O)N[C@H](C(=O)N[C@@H](Cc1ccccc1)C(=O)N[C@@H](Cc1c[nH]c2ccccc12)C(=O)N[C@@H](CCC(N)=O)C(=O)N[C@@H](CCC(=O)O)C(=O)N[C@@H](CCC(=O)O)C(=O)N[C@@H](CC[S+](C)[O-])C(=O)N[C@@H](CCC(=O)O)C(=O)N[C@@H](CC(C)C)C(=O)N[C@@H](Cc1ccc(O)cc1)C(=O)N[C@@H](CCCNC(=N)N)C(=O)N[C@@H](CCC(N)=O)C(=O)N[C@@H](CCCCN)C(=O)N[C@H](C(=O)O)C(C)C)C(C)C` (some centres unmarked) [G-KV21] (HELM PEPTIDE1{G.F.L.S.K.S.L.V.F.W.Q.E.E.[CS(=O)CC[C@H](N[*:1])C(=O)[*:2]].E.L.Y.R.Q.K.V}$$$$V2.0) was “may”.
